# Results reported in US20190161517A1 (ENSOL BIOSCIENCES, published 2019).
# Sequences of proteins named here, by UniProt entry; tags and fusion partners are left off. A change or cut given only in a name is not applied to a line headed by its entry. Residues count along the entry.
# UniProt Q15109, residues 23-342: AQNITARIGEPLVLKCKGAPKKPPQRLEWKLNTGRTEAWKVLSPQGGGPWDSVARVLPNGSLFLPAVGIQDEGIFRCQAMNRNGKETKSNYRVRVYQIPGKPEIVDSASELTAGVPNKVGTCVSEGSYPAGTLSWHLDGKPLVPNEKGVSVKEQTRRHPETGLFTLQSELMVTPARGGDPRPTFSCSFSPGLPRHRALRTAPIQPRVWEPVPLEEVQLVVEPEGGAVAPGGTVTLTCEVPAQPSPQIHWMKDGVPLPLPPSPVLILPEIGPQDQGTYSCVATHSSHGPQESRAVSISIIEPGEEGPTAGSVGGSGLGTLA
# Results are given in words; binding and its absence hold for the method and conditions named. Some binding calls cover weakened binding; strength is not graded here.
# B1: peptide of Example 1 (DGEFF) (peptide)
# peptide: DGEFF
# notes: Synthetic peptide made by AnyGen Co., Ltd
# Biological target: extracellular domain recombinant protein RAGE (11629-H08H, Sino Biological Inc.) (UniProt Q15109)
# Test: MST (Microscale Thermophoresis)
binder,measurement,value
B1,binding,binds
